Reference: publication doi:10.1101/2023.01.17.524225 (bioRxiv, 2023)
Read-outs that look alike come from different tables or passages of the source. These are yes or no findings as the source states them, for the method shown. Binding seen in cells or lysates may run through a third protein. Some binding calls cover weakened binding; strength is not graded here. Where a sequence is shown, tags or fusion partners need not be part of it.

B1: full-length C-terminally NanoLuc-tagged DDX50 (protein, UniProt Q9BQ39 1-737)
chain: MPGKLLWGDIMELEAPLEESESQKKERQKSDRRKSRHHYDSDEKSETRENGVTDDLDAPKAKKSKMKEKLNGDTEEGFNRLSDEFSKSHKSRRKDLPNGDIDEYEKKSKRVSSLDTSTHKSSDNKLEETLTREQKEGAFSNFPISEETIKLLKGRGVTYLFPIQVKTFGPVYEGKDLIAQARTGTGKTFSFAIPLIERLQRNQETIKKSRSPKVLVLAPTRELANQVAKDFKDITRKLSVACFYGGTSYQSQINHIRNGIDILVGTPGRIKDHLQSGRLDLSKLRHVVLDEVDQMLDLGFAEQVEDIIHESYKTDSEDNPQTLLFSATCPQWVYKVAKKYMKSRYEQVDLVGKMTQKAATTVEHLAIQCHWSQRPAVIGDVLQVYSGSEGRAIIFCETKKNVTEMAMNPHIKQNAQCLHGDIAQSQREITLKGFREGSFKVLVATNVAARGLDIPEVDLVIQSSPPQDVESYIHRSGRTGRAGRTGICICFYQPRERGQLRYVEQKAGITFKRVGVPSTMDLVKSKSMDAIRSLASVSYAAVDFFRPSAQRLIEEKGAVDALAAALAHISGASSFEPRSLITSDKGFVTMTLESLEEIQDVSCAWKELNRKLSSNAVSQITRMCLLKGNMGVCFDVPTTESERLQAEWHDSDWILSVPAKLPEIEEYYDGNTSSNSRQRSGWSSGRSGRSGRSGGRSGGRSGRQSRQGSRSGSRQDGRRRSGNRNRSRSGGHKRSFD
B2: full-length C-terminally NanoLuc-tagged DDX21 (protein, UniProt Q9NR30 1-783)
chain: MPGKLRSDAGLESDTAMKKGETLRKQTEEKEKKEKPKSDKTEEIAEEEETVFPKAKQVKKKAEPSEVDMNSPKSKKAKKKEEPSQNDISPKTKSLRKKKEPIEKKVVSSKTKKVTKNEEPSEEEIDAPKPKKMKKEKEMNGETREKSPKLKNGFPHPEPDCNPSEAASEESNSEIEQEIPVEQKEGAFSNFPISEETIKLLKGRGVTFLFPIQAKTFHHVYSGKDLIAQARTGTGKTFSFAIPLIEKLHGELQDRKRGRAPQVLVLAPTRELANQVSKDFSDITKKLSVACFYGGTPYGGQFERMRNGIDILVGTPGRIKDHIQNGKLDLTKLKHVVLDEVDQMLDMGFADQVEEILSVAYKKDSEDNPQTLLFSATCPHWVFNVAKKYMKSTYEQVDLIGKKTQKTAITVEHLAIKCHWTQRAAVIGDVIRVYSGHQGRTIIFCETKKEAQELSQNSAIKQDAQSLHGDIPQKQREITLKGFRNGSFGVLVATNVAARGLDIPEVDLVIQSSPPKDVESYIHRSGRTGRAGRTGVCICFYQHKEEYQLVQVEQKAGIKFKRIGVPSATEIIKASSKDAIRLLDSVPPTAISHFKQSAEKLIEEKGAVEALAAALAHISGATSVDQRSLINSNVGFVTMILQCSIEMPNISYAWKELKEQLGEEIDSKVKGMVFLKGKLGVCFDVPTASVTEIQEKWHDSRRWQLSVATEQPELEGPREGYGGFRGQREGSRGFRGQRDGNRRFRGQREGSRGPRGQRSGGGNKSNRSQNKGQKRSFSKAFGQ

Tests used:
[1] = target: T1, N-terminally tagged HaloTag-GID4 (human) (UniProt Q8IVV7); test: FRET or BRET
T1 sequence (chain, HaloTag NanoBRET 618 Ligand bound to the HaloTag): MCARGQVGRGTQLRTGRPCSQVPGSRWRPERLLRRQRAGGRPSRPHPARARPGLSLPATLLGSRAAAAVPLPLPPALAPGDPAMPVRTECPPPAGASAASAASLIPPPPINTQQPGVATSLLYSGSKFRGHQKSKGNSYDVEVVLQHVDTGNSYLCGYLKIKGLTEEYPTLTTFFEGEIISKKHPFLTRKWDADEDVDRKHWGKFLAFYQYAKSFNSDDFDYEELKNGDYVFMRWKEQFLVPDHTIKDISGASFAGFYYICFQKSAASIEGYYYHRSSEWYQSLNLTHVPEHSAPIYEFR

[2] = target: T1, N-terminally tagged HaloTag-GID4 (human); test: FRET or BRET; remark: listed apart in the source

| Binder | binding [1] | binding [2] |
| --- | --- | --- |
| B1 | no binding (condition: with PFI-7) | binds |
| B2 | no binding (condition: with PFI-7) | binds |
